Measurements reported in PubChem BioAssay AID686943 (Drosophila RNAi Screening Center, 2013)

Test: 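Knockdowns that increase or decrease active ERK after insulin receptor stimulation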 (primary screen)
Cells: Drosophila S2R+ haemocyte-like cells expressing YFP-tagged ERK (Rolled)
Reagents: long dsRNA against Drosophila genes
Conditions: insulin stimulation versus unstimulated cells; dose and duration not given
Detection: 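Antibody staining for doubly phosphorylated ERK divided by ERK-YFP signal, as plate z-scores, in insulin-treated and untreated cells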
Scale: replicate 1, z-score of dpERK with insulin and replicate 2, z-score of dpERK with insulin: higher = more active ERK per ERK-YFP after insulin
In all, the deposit lists about 23,000 reagents; below is a random part of those that have a named target and a result. 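Extra replicates exist only for a retested subset of genes; insulin dose and duration not given; both raised and lowered dpERK matter.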 The numbers tell different reagents against one gene apart. A plus sign joins genes that one reagent is predicted to hit. Not all columns of the deposit are shown. Not given: the amount of reagent, the time to read-out.

AOX2
- replicate 1, z-score of dpERK with insulin: 0.2
- replicate 2, z-score of dpERK with insulin: -1.37

ppl
- replicate 1, z-score of dpERK with insulin: 0.51
- replicate 2, z-score of dpERK with insulin: 1.47

rec #1
- replicate 1, z-score of dpERK with insulin: 0.48
- replicate 2, z-score of dpERK with insulin: 0.47

rec #2
- replicate 1, z-score of dpERK with insulin: -0.48
- replicate 2, z-score of dpERK with insulin: 0.75

ena #1
- replicate 1, z-score of dpERK with insulin: -2.04
- replicate 2, z-score of dpERK with insulin: -0.74

ena #2
- replicate 1, z-score of dpERK with insulin: -2.12
- replicate 2, z-score of dpERK with insulin: -2.09

CG30350
- replicate 1, z-score of dpERK with insulin: 0.24
- replicate 2, z-score of dpERK with insulin: 0.23

Ask1 #1
- replicate 1, z-score of dpERK with insulin: 0.85
- replicate 2, z-score of dpERK with insulin: 0.5

Ask1 #2
- replicate 1, z-score of dpERK with insulin: 1.25
- replicate 2, z-score of dpERK with insulin: 0.8

CG42471
- replicate 1, z-score of dpERK with insulin: 0.56
- replicate 2, z-score of dpERK with insulin: 0.18

Mkp3 #1
- replicate 1, z-score of dpERK with insulin: 0.39
- replicate 2, z-score of dpERK with insulin: -0.04

Mkp3 #2
- replicate 1, z-score of dpERK with insulin: 0.09
- replicate 2, z-score of dpERK with insulin: 0.23

CG11367
- replicate 1, z-score of dpERK with insulin: 0.39
- replicate 2, z-score of dpERK with insulin: 0.14

tst + CG10375
- replicate 1, z-score of dpERK with insulin: 0.02
- replicate 2, z-score of dpERK with insulin: 0.43

Jabba
- replicate 1, z-score of dpERK with insulin: 0.1
- replicate 2, z-score of dpERK with insulin: 0.36

CG13603
- replicate 1, z-score of dpERK with insulin: 0.38
- replicate 2, z-score of dpERK with insulin: 0.24

Naa80
- replicate 1, z-score of dpERK with insulin: -0.37
- replicate 2, z-score of dpERK with insulin: 0.24

Oamb #1
- replicate 1, z-score of dpERK with insulin: 0.65
- replicate 2, z-score of dpERK with insulin: -0.21

Oamb #2
- replicate 1, z-score of dpERK with insulin: -0.57
- replicate 2, z-score of dpERK with insulin: 1.05

Oamb #3
- replicate 1, z-score of dpERK with insulin: 1.2
- replicate 2, z-score of dpERK with insulin: 0.26

l(2)gl
- replicate 1, z-score of dpERK with insulin: -0.17
- replicate 2, z-score of dpERK with insulin: -0.68

Ir94b
- replicate 1, z-score of dpERK with insulin: 0.44
- replicate 2, z-score of dpERK with insulin: 0.68

CG32720
- replicate 1, z-score of dpERK with insulin: 0.56
- replicate 2, z-score of dpERK with insulin: 0.59

Part of the list above, showing only “replicate 1, z-score of dpERK with insulin”:
CG30350	0.24
Ask1 #1	0.85
Ask1 #2	1.25
CG42471	0.56
Mkp3 #1	0.39

Further entries follow.
CG16825
- replicate 1, z-score of dpERK with insulin: -0.61
- replicate 2, z-score of dpERK with insulin: -0.56

Su(z)12
- replicate 1, z-score of dpERK with insulin: -0.35
- replicate 2, z-score of dpERK with insulin: -1.5

CG31821
- replicate 1, z-score of dpERK with insulin: -0.86
- replicate 2, z-score of dpERK with insulin: 0.06

CNT1
- replicate 1, z-score of dpERK with insulin: 0.27
- replicate 2, z-score of dpERK with insulin: 0.59

CG31805
- replicate 1, z-score of dpERK with insulin: 1
- replicate 2, z-score of dpERK with insulin: -0.18

Sec61gamma
- replicate 1, z-score of dpERK with insulin: -0.91
- replicate 2, z-score of dpERK with insulin: -0.85

hbt #1
- replicate 1, z-score of dpERK with insulin: 0.13
- replicate 2, z-score of dpERK with insulin: 0.38

hbt #2
- replicate 1, z-score of dpERK with insulin: -0.2
- replicate 2, z-score of dpERK with insulin: 0.3

CG2104
- replicate 1, z-score of dpERK with insulin: 0.59
- replicate 2, z-score of dpERK with insulin: 0.53

GATAd
- replicate 1, z-score of dpERK with insulin: -0.06
- replicate 2, z-score of dpERK with insulin: -1.23

serp #1
- replicate 1, z-score of dpERK with insulin: 0.45
- replicate 2, z-score of dpERK with insulin: -0.14

serp #2
- replicate 1, z-score of dpERK with insulin: 1.5
- replicate 2, z-score of dpERK with insulin: 0.51

lncRNA:CR43435
- replicate 1, z-score of dpERK with insulin: 0.19
- replicate 2, z-score of dpERK with insulin: 0.35

CG14424
- replicate 1, z-score of dpERK with insulin: -0.53
- replicate 2, z-score of dpERK with insulin: -0.18

CG7991
- replicate 1, z-score of dpERK with insulin: 0.6
- replicate 2, z-score of dpERK with insulin: 0.94

CtsK2
- replicate 1, z-score of dpERK with insulin: 0.16
- replicate 2, z-score of dpERK with insulin: 0.05

hpRNA:CR32205 #1
- replicate 1, z-score of dpERK with insulin: -0.49
- replicate 2, z-score of dpERK with insulin: -0.06

hpRNA:CR32205 #2
- replicate 1, z-score of dpERK with insulin: -0.33
- replicate 2, z-score of dpERK with insulin: -0.28
